# From PubChem BioAssay (NCATS)
# Inconclusive results, whose numbers are uncertain, are shown with a selection of clear calls. A potency beside an inconclusive call is a rough fit, not a confirmed value. The source made the active and inactive calls. The call rests on the fitted dose curve; in most records, active means well fitted cell-killing curve with a large enough effect; inconclusive means small, poorly fitted or top-dose-only effect, or effect the other way; inactive means no such curve, though single readings can be large or run the other way.
# Legend:
# [1] = Quantitative High-Throughput drug screen in 47 multiple myeloma cell lines against the NCATS MIPE library collection: JIM1_ECACC cell viability assay (AID 1918964); conditions: JIM1 myeloma viability, CellTiter-Glo ATP luminescence, 48 h; viability (% of DMSO): at 45.8 µM (top of the series)
# Procedure, shortened: (§1)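 We plated 500 myeloma cells per well, pinned in MIPE 4.0 compounds, and incubated for 48 hours at 37C. ATP was then quantified with CellTiter-Glo, with DMSO and media-only wells defining 100% and 0%.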
# [2] = Quantitative High-Throughput drug screen in 47 multiple myeloma cell lines against the NCATS MIPE library collection: KMS12BM_JCRB cell viability assay (AID 1918971); conditions: KMS12BM myeloma viability, CellTiter-Glo ATP, 48 h; series mostly up to 45.8 µM; further: nearly all actives have a fitted effect of over 35% in size
# Procedure, shortened: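 Relative luminescence from CellTiter-Glo served as the viability signal, referenced to DMSO-treated (100%) and cell-free medium (0%) controls. Treatment lasted 48 hours at 37C with 500 cells per well.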
# [3] = Quantitative High-Throughput drug screen in 47 multiple myeloma cell lines against the NCATS MIPE library collection: KMS12PE_JCRB cell viability assay (AID 1918972); conditions: KMS12PE myeloma viability, CellTiter-Glo ATP, 48 h; viability: at 45.8 µM (top of the series); further: nearly all actives have a fitted effect of over 30% in size
# Procedure, shortened: (§2)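 Steps: seed 500 cells per well; pin-transfer MIPE 4.0 library; incubate 48 h at 37C, 5% CO2, humidified; add CellTiter-Glo, 5 min room temperature; read luminescence.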
# [4] = Quantitative High-Throughput drug screen in 47 multiple myeloma cell lines against the NCATS MIPE library collection: JJN3_DSMZ cell viability assay (AID 1918966; further: nearly all actives have a fitted effect of over 50% in size)
# Procedure, shortened: as §1
# [5] = Quantitative High-Throughput drug screen in 47 multiple myeloma cell lines against the NCATS MIPE library collection: KMS27_JCRB cell viability assay (AID 1918970); conditions: KMS27 myeloma cells, CellTiter-Glo ATP viability, 48 h; viability (% of DMSO): at 45.8 µM (top of the series); further: nearly all actives have a fitted effect of over 30% in size
# Procedure, shortened: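 Myeloma cells (500 per well) were exposed to MIPE 4.0 compounds for 48 h at 37 °C, 5% CO2; viability was read as ATP luminescence with CellTiter-Glo, normalized to DMSO-only (100%) and media-only (0%) wells.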
# [6] = Quantitative High-Throughput drug screen in 47 multiple myeloma cell lines against the NCATS MIPE library collection: INA6_PLB cell viability assay (AID 1918965; further: nearly all actives have a fitted effect of over 55% in size); conditions: INA6 myeloma viability, CellTiter-Glo ATP luminescence, 48 h; series mostly up to 45.8 µM
# Procedure, shortened: as §2
# [7] = Quantitative High-Throughput drug screen in 47 multiple myeloma cell lines against the NCATS MIPE library collection: Karpas25_ECACC cell viability assay (AID 1918968; further: nearly all actives have a fitted effect of over 35% in size)
# Procedure, shortened: as §1
# [8] = Quantitative High-Throughput drug screen in 47 multiple myeloma cell lines against the NCATS MIPE library collection: H1112_PLB cell viability assay (AID 1918967; further: nearly all actives have a fitted effect of over 30% in size)
# Procedure, shortened: as §1
# Potency means the concentration at half of the fitted maximal effect.
structure (smiles),measurement,setting,value
COc1c(C)cnc(Cn2cnc3c(Cl)nc(N)nc32)c1C,Potency,[1],"inconclusive: 46.9 nM [cytotoxic, full curve]"
same,Potency,[2],active: 187 nM
same,Potency,[3],"inconclusive: 93.5 nM [cytotoxic, full curve]"
Clc1ccc(COC(Cn2ccnc2)c2ccc(Cl)cc2Cl)c(Cl)c1 (stereo unspecified),Potency,[4],"inconclusive: 26400 nM [cytotoxic, single point]"
same,Potency,[5],"inconclusive: 26400 nM [cytotoxic, partial curve]"
N[C@@H](C(=O)N[C@@H]1C(=O)N2C(C(=O)O)=C(Cl)CS[C@H]12)c1ccccc1,Potency,[6],inactive
same,Potency,[4],inactive
same,Potency,[7],"inconclusive: 37.2 nM [rising, full curve, poor fit]"
same,Potency,[2],"inconclusive: 18.7 nM [rising, full curve, poor fit]"
COc1c(Cl)cc2c([nH]c3cnccc32)c1NC(=O)c1cccnc1C,Potency,[1],"inconclusive: 9350 nM [cytotoxic, partial curve, poor fit]"
same,Potency,[8],"inconclusive: 469 nM [cytotoxic, full curve, poor fit]"
same,Potency,[7],"inconclusive: 590 nM [cytotoxic, full curve, poor fit]"
CCN(CC)Cc1ccc2cc(COC(=O)Nc3ccc(C(=O)NO)cc3)ccc2c1,Potency,[8],active: 1180 nM
CC(C)(N)C(=O)N[C@H](COCc1ccccc1)C(=O)N1CCC2(CC1)CN(S(C)(=O)=O)c1ccccc12,Potency,[1],inactive
same,Potency,[8],"inconclusive: 23500 nM [cytotoxic, single point]"
same,Potency,[5],active: 5260 nM
Cc1ccc(NC(=O)c2ccc(CN3CCN(C)CC3)cc2)cc1Nc1nc(-c2cccnc2)cs1,Potency,[1],"inconclusive: 23500 nM [cytotoxic, partial curve, poor fit]"
same,Potency,[8],"inconclusive: 18700 nM [cytotoxic, partial curve]"
Cc1cc(Nc2nc(N[C@@H](C)c3ccc(F)cc3)c(C#N)cc2F)n[nH]1,Potency,[4],"inconclusive: 10500 nM [cytotoxic, partial curve, poor fit]"
same,Potency,[8],active: 16600 nM
same,Potency,[2],"inconclusive: 14800 nM [cytotoxic, partial curve, poor fit]"
same,Potency,[3],active: 935 nM
CN[C@H]1[C@@H](O[C@@H]2[C@H](O[C@@H]3[C@@H](O)[C@@H](O)[C@@H](N=C(N)N)[C@@H](O)[C@@H]3N=C(N)N)O[C@H](C)[C@@]2(O)C=O)O[C@@H](CO)[C@@H](O)[C@H]1O,Potency,[1],inactive
same,Potency,[4],"inconclusive: 5.3 nM [cytotoxic, full curve, poor fit]"
same,Potency,[5],inactive
same,Potency,[2],inactive
same,Potency,[3],inactive
CCNC(=O)[C@H]1O[C@@H](n2cnc3c(N)nc(NCCc4ccc(CCC(=O)O)cc4)nc32)[C@H](O)[C@H]1O,Potency,[1],inactive
same,Potency,[5],"inconclusive: 743 nM [rising, full curve, poor fit]"
CC(C=CC(=O)NO)=C[C@@H](C)C(=O)c1ccc(N(C)C)cc1,Potency,[1],active: 296 nM
same,Potency,[8],active: 372 nM
same,Potency,[5],active: 264 nM
CCc1cc(-c2n[nH]c(C)c2-c2ccc3c(c2)OCCO3)c(O)cc1O,Potency,[1],active: 5900 nM
same,Potency,[2],active: 5260 nM
Fc1ccc(CNc2ncnc3ccc(F)cc23)cc1,Potency,[1],"inconclusive: 935 nM [cytotoxic, full curve, poor fit]"
same,Potency,[4],"inconclusive: 2960 nM [cytotoxic, full curve, poor fit]"
same,Potency,[5],"inconclusive: 3320 nM [cytotoxic, full curve, poor fit]"
same,Potency,[3],active: 4690 nM
Cc1[nH]nc2ccc(-c3cncc(OC[C@@H](N)Cc4ccccc4)c3)cc12,Potency,[4],active: 1180 nM
same,Potency,[5],active: 2090 nM
COc1ccc(-c2cc3nccn3c(Nc3ncccc3C(N)=O)n2)cc1OC,Potency,[4],"inconclusive: 3720 nM [cytotoxic, full curve, poor fit]"
same,Potency,[8],active: 5900 nM
same,Potency,[7],active: 1480 nM
same,Potency,[5],"inconclusive: 469 nM [cytotoxic, full curve, poor fit]"
same,Potency,[2],"inconclusive: 9350 nM [cytotoxic, partial curve, poor fit]"
same,Potency,[3],"inconclusive: 469 nM [cytotoxic, full curve]"
Nc1nc(F)nc2c1ncn2[C@@H]1O[C@H](CO)[C@@H](O)[C@@H]1O,Potency,[1],active: 93.5 nM
same,Potency,[7],active: 296 nM
same,Potency,[5],active: 662 nM
C[C@@H]1CC=CC=CC=CC=C[C@@H](O[C@@H]2O[C@H](C)[C@@H](O)[C@H](N)[C@H]2O)C[C@@H]2O[C@](O)(C[C@@H](O)C[C@@H]3O[C@@H]3C=CC(=O)O1)C[C@H](O)[C@@H]2C(=O)O,Potency,[1],inactive
same,Potency,[4],"inconclusive: 16600 nM [cytotoxic, partial curve, poor fit]"
same,Potency,[5],"inconclusive: 26.4 nM [cytotoxic, full curve, poor fit]"
same,Potency,[3],inactive
CC(=O)c1c(C)c2cnc(Nc3ccc(N4CCNCC4)cn3)nc2n(C2CCCC2)c1=O,Potency,[6],active: 18700 nM
same,Potency,[8],active: 23500 nM
same,Potency,[2],active: 833 nM
c1nc2nc(Nc3ccc(N4CCOCC4)cc3)nc(NC3CCCCC3)c2[nH]1,Potency,[1],"inconclusive: 5260 nM [cytotoxic, partial curve, poor fit]"
same,Potency,[8],active: 5900 nM
CC(C)CC(=O)Nc1n[nH]c2c1CN(C(=O)C1CCN(C)CC1)C2(C)C,Potency,[1],"inconclusive: 1480 nM [cytotoxic, full curve]"
same,Potency,[8],active: 3320 nM
same,Potency,[7],active: 1870 nM
same,Potency,[2],active: 1660 nM
Nc1nc(=S)c2[nH]cnc2[nH]1,Potency,[1],"inconclusive: 2640 nM [cytotoxic, partial curve, poor fit]"
same,Potency,[5],inactive
same,Potency,[2],active: 5900 nM
COc1cccc(N(C)C(=S)Oc2ccc3c(c2)CCCC3)n1,Potency,[1],"inconclusive: 26400 nM [cytotoxic, single point]"
same,Potency,[4],"inconclusive: 1870 nM [rising, partial curve, poor fit]"
same,Potency,[5],"inconclusive: 23500 nM [cytotoxic, partial curve]"
same,Potency,[2],inactive
same,Potency,[3],"inconclusive: 20900 nM [cytotoxic, partial curve]"
C=CC(=O)N1CCc2ccc(-n3c(=O)ccc4cnc5ccc(-c6cnn(C)c6)cc5c43)cc21,Potency,[4],active: 1050 nM
same,Potency,[8],active: 1050 nM
same,Potency,[2],active: 4690 nM
CCOC(=O)[C@H](CCc1ccccc1)N[C@H]1CCc2ccccc2N(CC(=O)O)C1=O,Potency,[8],active: 23500 nM
same,Potency,[2],active: 29600 nM
CC1(O)CC(c2nc(-c3ccc4ccc(-c5ccccc5)nc4c3)c3c(N)nccn23)C1 (stereo unspecified),Potency,[4],active: 6620 nM
same,Potency,[5],active: 2350 nM
O=C(NC1CCNCC1)c1[nH]ncc1NC(=O)c1c(Cl)cccc1Cl,Potency,[1],active: 264 nM
same,Potency,[2],active: 235 nM
NCC(=O)Nc1ccc(-n2nc(C(F)(F)F)cc2-c2ccc3c(ccc4ccccc43)c2)cc1,Potency,[1],"inconclusive: 1.5 nM [rising, full curve, poor fit]"
same,Potency,[5],"inconclusive: 1.9 nM [rising, full curve, poor fit]"
same,Potency,[2],"inconclusive: 37200 nM [cytotoxic, single point]"
C=CC[C@@H]1C=C(C)C[C@H](C)C[C@H](OC)[C@H]2O[C@@](O)(C(=O)C(=O)N3CCCC[C@H]3C(=O)O[C@H](C(C)=C[C@@H]3CC[C@H](O)[C@H](OC)C3)[C@@H](C)[C@@H](O)CC1=O)[C@@H](C)C[C@@H]2OC,Potency,[5],active: 743 nM
same,Potency,[2],active: 1480 nM
Cn1cnc(=N)c2[nH]cnc21,Potency,[1],active: 93.5 nM
same,Potency,[3],active: 93.5 nM
Nc1ncnc2c1c(-c1cccc(OCc3ccccc3)c1)cn2C1CC(CN2CCCC2)C1 (stereo unspecified),Potency,[4],active: 5900 nM
same,Potency,[7],active: 148 nM
CNC[C@@H](O)[C@@H](O)[C@H](O)[C@H](O)CO,Potency,[6],"inconclusive: 18.7 nM [rising, full curve, poor fit]"
same,Potency,[8],"inconclusive: 4180 nM [rising, partial curve, poor fit]"
same,Potency,[5],inactive
same,Potency,[2],"inconclusive: 3.7 nM [rising, full curve, poor fit]"
COCCOc1ccc2c(c1)ncn2-c1ccc2cccc(N3CCC(N)CC3)c2n1,Potency,[6],active: 46.9 nM
same,Potency,[4],active: 4180 nM
Cc1cnc(Nc2ccc(N3CCN(C)CC3)cc2)nc1Nc1cccc(S(=O)(=O)NC(C)(C)C)c1,Potency,[1],active: 662 nM
same,Potency,[5],"inconclusive: 372 nM [cytotoxic, full curve]"
CN1CCN(c2cc(C(=O)Nc3ccc4c(c3)-c3c(c(C(N)=O)nn3-c3ccc(F)cc3)CC4)c(Cl)cn2)CC1,Potency,[1],active: 8330 nM
same,Potency,[7],active: 2350 nM
C[C@@H](N)c1ccc(C(=O)Nc2ccnc3[nH]ccc23)cc1,Potency,[1],active: 13200 nM
same,Potency,[7],"inconclusive: 29600 nM [cytotoxic, single point]"
same,Potency,[2],"inconclusive: 37200 nM [cytotoxic, single point]"
O=C(c1ccc(C=Cc2n[nH]c3ccccc23)cc1)N1CCNCC1,Potency,[1],active: 3720 nM
same,Potency,[5],"inconclusive: 14800 nM [cytotoxic, partial curve, poor fit]"
same,Potency,[2],"inconclusive: 18700 nM [cytotoxic, partial curve, poor fit]"
C[C@@H](O)[C@H]1C(=O)N2C(C(=O)OCOC(=O)C(C)(C)C)=C(SC3CN(C4=NCCS4)C3)[C@H](C)[C@H]12,Potency,[1],inactive
same,Potency,[7],"inconclusive: 26400 nM [cytotoxic, single point]"
same,Potency,[5],"inconclusive: 26400 nM [cytotoxic, single point]"
same,Potency,[2],inactive
same,Potency,[3],"inconclusive: 33200 nM [cytotoxic, single point]"
Clc1ccc2ncc(-c3cccc(NC4CNC4)n3)n2c1,Potency,[7],active: 26400 nM
same,Potency,[5],inactive

# Part of the list above, as tab-separated lines.
structure (smiles)	measurement	setting	value
CCc1cc(-c2n[nH]c(C)c2-c2ccc3c(c2)OCCO3)c(O)cc1O	Potency	[2]	active: 5260 nM
Fc1ccc(CNc2ncnc3ccc(F)cc23)cc1	Potency	[1]	inconclusive: 935 nM [cytotoxic, full curve, poor fit]
same	Potency	[4]	inconclusive: 2960 nM [cytotoxic, full curve, poor fit]

# In another format: results already given
structure (smiles)	measurement	setting	value
O=C(c1ccc(C=Cc2n[nH]c3ccccc23)cc1)N1CCNCC1	Potency	[2]	inconclusive: 18700 nM [cytotoxic, partial curve, poor fit]
C[C@@H](O)[C@H]1C(=O)N2C(C(=O)OCOC(=O)C(C)(C)C)=C(SC3CN(C4=NCCS4)C3)[C@H](C)[C@H]12	Potency	[1]	inactive
same	Potency	[7]	inconclusive: 26400 nM [cytotoxic, single point]
same	Potency	[5]	inconclusive: 26400 nM [cytotoxic, single point]
